This is an account of results in publication doi:10.1101/583724.

Results are given in words; binding and its absence hold for the method and conditions named. Binding seen in cells or lysates may run through a third protein. These calls come from enrichment with a bait or labelling near it, and not all partners need be listed.

The target in this assay is S2Lb-GFP (SWD2-LIKE-b, GFP-tagged) (Arabidopsis thaliana). Nature of the assay: affinity purification with mass spectrometry.

B1: CDKC;1 (enzyme, UniProt Q9LFT8 1-505)
chain: MAMASFGQLNLEEPPPIWGSRSVDCFEKLEQIGEGTYGQVYMAKEIKTGEIVALKKIRMDNEREGFPITAIREIKILKKLHHENVIQLKEIVTSPGRDRDDQGKPDNNKYKGGIYMVFEYMDHDLTGLADRPGLRFTVPQIKCYMKQLLTGLHYCHVNQVLHRDIKGSNLLIDNEGNLKLADFGLARSYSHDHTGNLTNRVITLWYRPPELLLGATKYGPAIDMWSVGCIFAELLHAKPILPGKNEQEQLNKIFELCGSPDEKLWPGVSKMPWFNNFKPARPLKRRVREFFRHFDRHALELLEKMLVLDPAQRISAKDALDAEYFWTDPLPCDPKSLPTYESSHEFQTKKKRQQQRQNEEAAKRQKLQHPPLQHSRLPPLQHGGQSHAAPHWPAGPNHPTNNAPPQVPAGPSHNFYGKPRGPPGPNRYPPSGNQSGGYNQSRGGYSSGSYPPQGRGAPYVAGPRGPSGGPYGVGPPNYTQGGQYGGSGSSGRGQNQRNQQYGWQQ
Turning to B1, the binding result is on record as “binds”.
